# From PubChem BioAssay AID2685 (National Center for Advancing Translational Sciences (NCATS), 2010)
# Some of the results follow. Further columns of the screen follow, without active or inactive calls. Most of these compounds were active or inconclusive in the main read-out, so they are no random draw. Words in brackets tell the shape of the fitted curve; partial curves, single points and poor fits give uncertain potencies.
# Experiment: qHTS Assay for Lipid Storage Modulators in Drosophila S3 Cells;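 for cell number change: cells counted by Cell Tracker Red CMTPX staining in the red channel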
# Conditions: BODIPY lipid droplet fluorescence, 18-24 h; for cell number change: measured here: cell count max response, cells fed with added oleic acid
# Procedure, shortened: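 Drosophila S3 cells loaded with oleic acid (400 uM, as added) and compounds at several concentrations; lipid droplets imaged by 488-nm laser-scanning cytometry, 500–530 nm intensity and object ratio to cell channel. Percent activity normalized to 20 uM Triacsin C.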
# [1] = measured here: cell number channel AC50, cells fed with added oleic acid
# [2] = measured here: lipid fluorescence (Fed channel) AC50, cells fed with added oleic acid
SMILES,cell number change,AC50 [1],AC50 [2]
O=C(O)c1ccc(Cl)c(S(=O)(=O)Nc2ccc3[nH]c(=O)[nH]c3c2)c1,-43.2%,"4110 nM [falling, single point]",
CC(=O)Nc1ccc(NC(=O)COC(=O)c2c3c(nc4ccccc24)CCN(Cc2ccccc2)C3)cc1,12.2%,,"820 nM [rising, full curve, poor fit]"
CCCCc1nc2n[nH]c(N)c2c2c1CCCC2,53.4%,"7310 nM [rising, partial curve]",
CCCC(=O)Nc1ccccc1-c1nnn(CC(=O)Nc2ccc(OC)cc2)n1,,,"411 nM [rising, partial curve, poor fit]"
Cc1ccc(SCCC(=O)Nc2ccc(OCc3ccccc3)cc2)cc1,-33.4%,"29100 nM [falling, partial curve, poor fit]","4.61 nM [falling, full curve, poor fit]"
Cc1ccc2cc(N)ccc2n1,-1.23%,,"4.61 nM [falling, full curve, poor fit]"
Cn1c(=O)c2[nH]c(-c3ccccc3O)nc2n(C)c1=O,38.9%,"29100 nM [rising, single point]","29100 nM [rising, single point]"
Cc1cc(C)cc(C(=O)NCC(=O)N2CCN(c3cccc(Cl)c3)CC2)c1,-6.94%,,
COc1cccc(-c2noc(CCC(=O)NC3CCCCC3)n2)c1,9.22%,,
CCCSc1nnc(NC(=O)c2nc(SC)ncc2Cl)s1,31.9%,"291 nM [rising, full curve, poor fit]","6510 nM [rising, single point]"
CC(=N[C@@H]1CCCC[C@H]1N=C(C)c1ccccc1O)c1ccccc1O,-7.54%,,"366 nM [falling, full curve, poor fit]"
Cn1c(SCc2ccc([N+](=O)[O-])cc2)nnc1-c1cccnc1,-15.8%,,
Cc1ccc(CCN2CC(C(=O)NCCN3CCCCCC3)CC2=O)cc1 (stereo unspecified),39.5%,,
CC(C(=O)N=Nc1c(O)n(C)c2ccc(Br)cc12)n1cnc2ccccc2c1=O (stereo unspecified),7.25%,"411 nM [rising, partial curve, poor fit]","651 nM [rising, partial curve, poor fit]"
CCOc1ccc(Oc2ccc(NC(=O)CSc3nncn3C)cc2)cc1,24%,,
O=S(=O)(NC(=NCc1ccccc1)c1ccccc1)c1ccccc1,-7.89%,,
Cc1ccc(CN2CCCOCCS2(=O)=O)cc1,34.1%,"731 nM [rising, partial curve, poor fit]",
COc1ccc(-c2cc(C(F)F)n3ncc(C(=O)N4CCSCC4)c3n2)cc1,-7.28%,,
CN(CC(=O)Nc1ccccc1Br)C(=O)CCc1ccccc1,-4.76%,,"10300 nM [rising, partial curve, poor fit]"
CCOC(=O)c1c(C)[nH]c(C)c1S(=O)(=O)NCCc1ccco1,8.24%,,"6510 nM [falling, single point]"
Cn1c(SCC(=O)NCc2ccc3c(c2)OCO3)nnc1C1COc2ccccc2O1 (stereo unspecified),-77.1%,"13000 nM [falling, partial curve]","10300 nM [falling, partial curve]"

# A second format for part of the listing above.
SMILES	cell number change	AC50 [1]	AC50 [2]
CCCCc1nc2n[nH]c(N)c2c2c1CCCC2	53.4%	7310 nM [rising, partial curve]	
CCCC(=O)Nc1ccccc1-c1nnn(CC(=O)Nc2ccc(OC)cc2)n1			411 nM [rising, partial curve, poor fit]
Cc1ccc(SCCC(=O)Nc2ccc(OCc3ccccc3)cc2)cc1	-33.4%	29100 nM [falling, partial curve, poor fit]	4.61 nM [falling, full curve, poor fit]
Cc1ccc2cc(N)ccc2n1	-1.23%		4.61 nM [falling, full curve, poor fit]
Cn1c(=O)c2[nH]c(-c3ccccc3O)nc2n(C)c1=O	38.9%	29100 nM [rising, single point]	29100 nM [rising, single point]
Cc1cc(C)cc(C(=O)NCC(=O)N2CCN(c3cccc(Cl)c3)CC2)c1	-6.94%		
COc1cccc(-c2noc(CCC(=O)NC3CCCCC3)n2)c1	9.22%		
CCCSc1nnc(NC(=O)c2nc(SC)ncc2Cl)s1	31.9%	291 nM [rising, full curve, poor fit]	6510 nM [rising, single point]
CC(=N[C@@H]1CCCC[C@H]1N=C(C)c1ccccc1O)c1ccccc1O	-7.54%		366 nM [falling, full curve, poor fit]
Cn1c(SCc2ccc([N+](=O)[O-])cc2)nnc1-c1cccnc1	-15.8%		
Cc1ccc(CCN2CC(C(=O)NCCN3CCCCCC3)CC2=O)cc1 (stereo unspecified)	39.5%		
CC(C(=O)N=Nc1c(O)n(C)c2ccc(Br)cc12)n1cnc2ccccc2c1=O (stereo unspecified)	7.25%	411 nM [rising, partial curve, poor fit]	651 nM [rising, partial curve, poor fit]
CCOc1ccc(Oc2ccc(NC(=O)CSc3nncn3C)cc2)cc1	24%		
O=S(=O)(NC(=NCc1ccccc1)c1ccccc1)c1ccccc1	-7.89%		
Cc1ccc(CN2CCCOCCS2(=O)=O)cc1	34.1%	731 nM [rising, partial curve, poor fit]	

# The list continues:

SMILES,cell number change,AC50 [1],AC50 [2]
Cc1ccc(C(=O)c2cc([N+](=O)[O-])ccc2N2CCCCC2)cc1,1.59%,,"1160 nM [falling, single point]"
COc1ccc(-c2noc(CNC(=O)Nc3ccc(F)cc3)n2)cc1,33.4%,,
Cc1ccc(CNC(=O)CN(C)S(=O)(=O)c2cccc3cccnc23)cc1,,,"18400 nM [rising, single point]"
O=C(COC(=O)c1ccc(F)cc1F)Nc1ccc(Cl)cn1,-25.4%,,"130 nM [falling, full curve, poor fit]"
Cc1ccc(OC(=O)NC2CCS(=O)(=O)C2)cc1C (stereo unspecified),38.3%,"1640 nM [rising, partial curve]",
COc1ccc(CCNC(=O)CSc2ccc(-c3ccco3)nn2)cc1,-23%,"36.6 nM [falling, full curve, poor fit]",
Cc1ccc(-c2nn(-c3cccc(F)c3)cc2CNCCc2ccncc2)o1,9.47%,"65.1 nM [rising, full curve, poor fit]","58 nM [rising, full curve, poor fit]"
O=C(O)CCCNC1=NCCC1,-1.26%,,"6510 nM [falling, single point]"
COc1ccc(-n2c(SCC(=O)c3c(N)n(C)c(=O)n(C)c3=O)nc3ccccc32)cc1,25.6%,,
O=c1cc(-c2ccc3c(c2)OCO3)oc2ccccc12,,"461 nM [rising, partial curve]",
COc1ccccc1NC(=O)C1CCC(CNc2c(N3CCCCC3)c(=O)c2=O)CC1 (stereo unspecified),10.5%,,
COc1cccc(NC(=O)[C@@H]2CCCN2C(=O)C2CCN(S(=O)(=O)c3ccc(C)cc3)CC2)c1,9.09%,"2910 nM [rising, partial curve]",
O=C(CSc1nnc(-c2ccccc2)o1)N1CCOCC1,,"291 nM [rising, full curve, poor fit]",
O=C(CN1CCN(C(=O)c2ccco2)CC1)Nc1ccccc1-c1ccccc1,-16.6%,,
Cc1cccc(NC(c2ccc(O)cc2)c2ccc3ccc(C)nc3c2O)n1 (stereo unspecified),-105%,"29100 nM [falling, partial curve]","20600 nM [falling, partial curve]"
Cc1ccc2c(c1)c1c3n2CCN(C(=O)CCl)C3CCC1 (stereo unspecified),-38.5%,"14600 nM [falling, partial curve]","14600 nM [falling, partial curve]"
NCCCC(=O)N1c2ccccc2Sc2ccccc21,-31.6%,"2310 nM [falling, single point]","3260 nM [falling, single point]"
CC(C)[C@H](NC(=O)OCc1ccccc1)C(=O)OCC(=O)Nc1ccc(N2CCOCC2)cc1,-9.78%,,"6510 nM [falling, single point]"
O=C1C2C3C=CC(C4CC34)C2C(=O)N1/N=C/c1ccc(-c2cccc([N+](=O)[O-])c2)o1 (stereo unspecified),-5.24%,,"13 nM [rising, full curve]"
COc1ccc(Cc2nnc(NC(=O)C(C)C)s2)cc1,3.84%,"517 nM [falling, full curve, poor fit]",
C(#Cc1ccccc1)CN1CCCCC1,10.6%,,"6.51 nM [falling, full curve, poor fit]"

SMILES,cell number change,AC50 [1],AC50 [2]
CC(=O)Nc1ccc(NS(=O)(=O)c2cn(C)c(=O)n(C)c2=O)cc1,-7.06%,,"231 nM [falling, full curve, poor fit]"
COc1cccc(N2C(=O)C3C(C2=O)C2C=CC3C23CC3)c1 (stereo unspecified),-78.2%,"20600 nM [falling, partial curve]","651 nM [falling, single point]"
CC(C)[C@H](NS(=O)(=O)c1cccc(Cl)c1)C(=O)OCC(=O)N1CCN(c2ccccc2)CC1,9.95%,,"29100 nM [falling, single point]"
CCO[C@H]1OC(C(=O)N2CCN(Cc3ccc4c(c3)OCO4)CC2)=C[C@@H](c2csc3ccccc23)[C@@H]1CCCO,-24.4%,,"29100 nM [falling, single point]"
COc1cccc(C2C3=C(N=C4SCC(=O)N42)c2ccccc2CC3)c1OC (stereo unspecified),-15.5%,,
Cc1ccc(OC(=O)COc2ccccc2)c(-n2nc3ccccc3n2)c1,-3.42%,,
CCCCN(C)CCNC(=S)Nc1ccc2nc(N3CCN(CC)CC3)cc(C)c2c1,9.01%,,"29100 nM [rising, single point]"
CCN(CC(=O)Nc1ccccc1OC)C(=O)c1cc(S(=O)(=O)N2CCCCCC2)ccc1OC,81.5%,"16400 nM [rising, single point]",
NNC(=O)c1ccc(CSc2cccc3cccnc23)cc1,-8.55%,,
Cc1cc(C)c2oc(C(=O)NC3CCS(=O)(=O)C3)cc(=O)c2c1 (stereo unspecified),-16.5%,,"29100 nM [falling, single point]"
COc1ccc(-c2noc(CCC(=O)Nc3cc(Cl)c(OC)cc3OC)n2)cc1,,"4110 nM [rising, single point]","2910 nM [rising, partial curve]"
O=C(COc1ncnc2ccccc12)N1CCOCC1,-24.5%,,"25900 nM [falling, single point]"
O=C(CSc1nnc(CNC(=O)c2ccccc2)o1)NCCc1ccccc1,-31.1%,"103 nM [falling, full curve, poor fit]",
CC(=O)c1ccc(NC(=O)c2ccc(-n3cncn3)c([N+](=O)[O-])c2)cc1,-29.6%,"4.61 nM [falling, full curve, poor fit]",
COc1ccc(NC(=O)CSCC(=O)NCc2cccc(C(F)(F)F)c2)cc1,8.18%,,"130 nM [falling, partial curve]"
O=C(CN(CC1CCCO1)C(=O)CNS(=O)(=O)c1ccc(Cl)cc1)NCc1ccco1 (stereo unspecified),14.1%,"92 nM [rising, full curve, poor fit]","116 nM [falling, single point]"
O=[N+]([O-])c1ccccc1S(=O)(=O)N1CCN(c2ccccn2)CC1,-17.5%,,
CC(C)C(=O)OC/C(O)=C(\C#N)c1nc2ccccc2[nH]1,10.5%,"4.61 nM [falling, full curve, poor fit]",
Cc1ccc(S(=O)(=O)N(C)C)cc1NC(=S)NCCCn1ccnc1,-8.25%,,
CSc1ccc(S(=O)(=O)NCC(=O)OCC(=O)N2CCCC2=O)cc1[N+](=O)[O-],124%,"20600 nM [rising, partial curve]","103 nM [rising, full curve, poor fit]"

# As entered above:
# cell number change, O=C(CN(CC1CCCO1)C(=O)CNS(=O)(=O)c1ccc(Cl)cc1)NCc1ccco1 (stereo unspecified) is entered as 14.1%
# AC50 [1], COc1ccc(-c2noc(CCC(=O)Nc3cc(Cl)c(OC)cc3OC)n2)cc1 is entered as 4110 nM [rising, single point]
